Test results: article PMC3675069
These are yes or no findings as the source states them, for the method shown. In cells and extracts the contact can be indirect. Some binding calls cover weakened binding; strength is not graded here.

Biological target: R181C V2R/Rluc8 (human) (UniProt P30518)
Assay: FRET or BRET; live HEK293FT cells co-expressing V2R/Rluc8 and ubiquitin K48,63A/Venus; AVP at several doses for 120 min; ligand-induced BRET, 37°C

binding: binds
Substance: Ubiquitin K48,63A fused to Venus (ubiquitin/Venus) (from UniProt P0CG47 1-76)
